In the supplement of paper PMC6658780:
Where a name gives a salt, the structure may show the parent alone. ± gives the standard deviation of the averaged measurements. Some of the results follow. Single values are uncertain here, since repeats match poorly.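 The A. baumannii clinical isolates were selected for resistance to the partner antibiotic; the screen seeks drugs that restore its effect. Background from coloured compounds is removed by subtracting the start-of-incubation reading.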

What follows are compounds tested on Acinetobacter baumannii WP-487 (assay: percent growth inhibition of drug alone vs DMSO control; higher = more growth inhibition). Settings: antibiotic (0.125x MIC): none (0.1% DMSO); 7 µM.
Experimental: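 Prestwick drugs tested at 20 uM and 7 uM with an antibiotic at 0.125x MIC (16 mg/L when MIC >128 mg/L) in cation-adjusted Mueller-Hinton broth, 384-well plates, duplicate runs on different days. Percent growth inhibition was computed from OD600 (24 h minus 0 h) relative to DMSO-only wells. Drug + 0.1% DMSO (no antibiotic) wells are also given. Only hits (max corrected inhibition > mean + 3SD) are listed. A. baumannii: NCTC-13301 was used for MEM/CIP/GEN/TGC and WP-487 for colistin. Duplicates with colistin are strongly discordant (run 2 near 100% for most drugs).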

Q: Which “percent growth inhibition of drug alone” value does the source give for CC(C)/N=c1\cc2n(-c3ccc(Cl)cc3)c3ccccc3nc-2cc1Nc1ccc(Cl)cc1 [Clofazimine] here?
A: 1.71 ± 5.2%

Q: CN[C@@H]1[C@@H](O[C@H]2O[C@H](CO)[C@@H](N)[C@H](O)[C@H]2O)OC2C[C@@H](N)[C@@H](O[C@H]3[C@H](O)[C@@H](O)[C@H](N)C[C@@H]3N)OC2[C@@H]1O (stereo not given in full) [Apramycin] was tested. Which “percent growth inhibition of drug alone” value did it give?
A: 8.33 ± 5.8%

Q: Which “percent growth inhibition of drug alone” value does the source give for Cc1cn([C@H]2C[C@H](N=[N+]=[N-])[C@@H](CO)O2)c(=O)[nH]c1=O [Zidovudine, AZT] here?
A: -2.45 ± 7.7%

Q: How did the “percent growth inhibition of drug alone” value turn out when Clc1ccc(C(Cn2ccnc2)OCc2c(Cl)cccc2Cl)c(Cl)c1 (stereo not given) [Isoconazole] was run?
A: 2.26 ± 0.6%

Q: COC(=O)C1=C(C#N)NC(C)=C(C(=O)OC(C)C)C1c1cccc([N+](=O)[O-])c1 (stereo not given) [Nilvadipine] was tested. Which “percent growth inhibition of drug alone” value did it give?
A: -0.629 ± 6.7%

Q: O=C(c1ccc(OCCN2CCCCC2)cc1)c1c(-c2ccc(O)cc2)sc2cc(O)ccc12 [Raloxifene hydrochloride] was tested. Which “percent growth inhibition of drug alone” value did it give?
A: -0.99 ± 6.1%

Q: How did the “percent growth inhibition of drug alone” value turn out when Cc1ccnc(NS(=O)(=O)c2ccc(N)cc2)n1 [Sulfamerazine] was run?
A: 47.8 ± 57%

Q: Which “percent growth inhibition of drug alone” value does the source give for OCCN1CCN(CC/C=C2/c3ccccc3Sc3ccc(Cl)cc32)CC1 [Zuclopenthixol dihydrochloride] here?
A: 4.9 ± 2.3%

Q: Which “percent growth inhibition of drug alone” value does the source give for Cc1onc(-c2c(F)cccc2Cl)c1C(=O)N[C@@H]1C(=O)N2[C@@H]1SC(C)(C)[C@@H]2C(=O)O [Flucloxacillin sodium] here?
A: 4.79 ± 2.4%

Q: CCc1oc2ccccc2c1C(=O)c1cc(Br)c(O)c(Br)c1 [Benzbromarone] was tested. Which “percent growth inhibition of drug alone” value did it give?
A: 5.19 ± 0.65%

Q: Which “percent growth inhibition of drug alone” value does the source give for CC(=O)O[C@H]1C[C@@]2(C)[C@@H](C[C@@H](O)[C@H]3[C@@]4(C)CC[C@@H](O)[C@@H](C)[C@@H]4CC[C@@]32C)/C1=C(\CCC=C(C)C)C(=O)O [Fusidic acid sodium salt] here?
A: 1.55 ± 5.9%

Q: Which “percent growth inhibition of drug alone” value does the source give for Clc1ccc(CO/N=C(\Cn2ccnc2)c2ccc(Cl)cc2Cl)c(Cl)c1 [Oxiconazole Nitrate] here?
A: -1.93 ± 3.2%

Q: How did the “percent growth inhibition of drug alone” value turn out when CC[C@H](c1ccc(O)cc1)[C@@H](CC)c1ccc(O)cc1 [Hexestrol] was run?
A: 0.867 ± 8.1%

Q: Which “percent growth inhibition of drug alone” value does the source give for O=c1[nH]c(=O)n([C@H]2C[C@H](O)[C@@H](CO)O2)cc1F [Floxuridine] here?
A: -0.0189 ± 8%

Q: How did the “percent growth inhibition of drug alone” value turn out when COc1cccc2c1C(=O)c1c(O)c3c(c(O)c1C2=O)C[C@@](O)(C(=O)CO)C[C@@H]3O[C@H]1C[C@H](N)[C@@H](O)[C@H](C)O1 [Epirubicin hydrochloride] was run?
A: 12.1 ± 4.3%

Q: Which “percent growth inhibition of drug alone” value does the source give for CN1CCC(=C2c3ccccc3Sc3ccccc32)CC1 [Pimethixene maleate] here?
A: 1.77 ± 7.7%

Q: With COc1ccc(-c2cc(=S)ss2)cc1 [Anethole-trithione] as the compound, how does the “percent growth inhibition of drug alone” value read?
A: 1.09 ± 3.4%

Q: Nc1ccc(S(=O)(=O)Nc2ccccn2)cc1 [Sulfapyridine] was tested. Which “percent growth inhibition of drug alone” value did it give?
A: 13.4 ± 8%

Q: Which “percent growth inhibition of drug alone” value does the source give for COC(=O)C1=C(C)NC(C)=C(C(=O)OC2CCCN(Cc3ccccc3)C2)C1c1cccc([N+](=O)[O-])c1 (stereo not given) [Benidipine hydrochloride] here?
A: -2.06 ± 3.1%

Q: Which “percent growth inhibition of drug alone” value does the source give for CCOC(=O)C1=C(C)NC(C)=C(C(=O)OC)C1c1cccc(Cl)c1Cl (stereo not given) [Felodipine] here?
A: -1.61 ± 7.2%

Same assay, conditions: antibiotic (0.125x MIC): none (0.1% DMSO); 20 µM

Q: Which “percent growth inhibition of drug alone” value does the source give for CC(C)/N=c1\cc2n(-c3ccc(Cl)cc3)c3ccccc3nc-2cc1Nc1ccc(Cl)cc1 [Clofazimine] here?
A: 5.57 ± 11%

Q: Which “percent growth inhibition of drug alone” value does the source give for CN[C@@H]1[C@@H](O[C@H]2O[C@H](CO)[C@@H](N)[C@H](O)[C@H]2O)OC2C[C@@H](N)[C@@H](O[C@H]3[C@H](O)[C@@H](O)[C@H](N)C[C@@H]3N)OC2[C@@H]1O (stereo not given in full) [Apramycin] here?
A: 28.8 ± 34%

Q: With Cc1cn([C@H]2C[C@H](N=[N+]=[N-])[C@@H](CO)O2)c(=O)[nH]c1=O [Zidovudine, AZT] as the compound, how does the “percent growth inhibition of drug alone” value read?
A: 1.03 ± 3.3%

Q: For Clc1ccc(C(Cn2ccnc2)OCc2c(Cl)cccc2Cl)c(Cl)c1 (stereo not given) [Isoconazole], which “percent growth inhibition of drug alone” value is on record?
A: 19.9 ± 27%

Q: For COC(=O)C1=C(C#N)NC(C)=C(C(=O)OC(C)C)C1c1cccc([N+](=O)[O-])c1 (stereo not given) [Nilvadipine], which “percent growth inhibition of drug alone” value is on record?
A: -3.5 ± 1.3%

Q: With O=C(c1ccc(OCCN2CCCCC2)cc1)c1c(-c2ccc(O)cc2)sc2cc(O)ccc12 [Raloxifene hydrochloride] as the compound, how does the “percent growth inhibition of drug alone” value read?
A: 17.5 ± 22%

Q: For Cc1ccnc(NS(=O)(=O)c2ccc(N)cc2)n1 [Sulfamerazine], which “percent growth inhibition of drug alone” value is on record?
A: 60.7 ± 53%

Q: Which “percent growth inhibition of drug alone” value does the source give for OCCN1CCN(CC/C=C2/c3ccccc3Sc3ccc(Cl)cc32)CC1 [Zuclopenthixol dihydrochloride] here?
A: 4.49 ± 6.6%

Q: How did the “percent growth inhibition of drug alone” value turn out when Cc1onc(-c2c(F)cccc2Cl)c1C(=O)N[C@@H]1C(=O)N2[C@@H]1SC(C)(C)[C@@H]2C(=O)O [Flucloxacillin sodium] was run?
A: 0.409 ± 0.091%

Q: How did the “percent growth inhibition of drug alone” value turn out when CCc1oc2ccccc2c1C(=O)c1cc(Br)c(O)c(Br)c1 [Benzbromarone] was run?
A: 5.22 ± 6.6%

Q: With CC(=O)O[C@H]1C[C@@]2(C)[C@@H](C[C@@H](O)[C@H]3[C@@]4(C)CC[C@@H](O)[C@@H](C)[C@@H]4CC[C@@]32C)/C1=C(\CCC=C(C)C)C(=O)O [Fusidic acid sodium salt] as the compound, how does the “percent growth inhibition of drug alone” value read?
A: -1.43 ± 3.2%

Q: Which “percent growth inhibition of drug alone” value does the source give for Clc1ccc(CO/N=C(\Cn2ccnc2)c2ccc(Cl)cc2Cl)c(Cl)c1 [Oxiconazole Nitrate] here?
A: 0.938 ± 7.4%

Q: With CC[C@H](c1ccc(O)cc1)[C@@H](CC)c1ccc(O)cc1 [Hexestrol] as the compound, how does the “percent growth inhibition of drug alone” value read?
A: -4.41 ± 2.2%

Q: O=c1[nH]c(=O)n([C@H]2C[C@H](O)[C@@H](CO)O2)cc1F [Floxuridine] was tested. Which “percent growth inhibition of drug alone” value did it give?
A: 1.05 ± 3.6%

Q: Which “percent growth inhibition of drug alone” value does the source give for COc1cccc2c1C(=O)c1c(O)c3c(c(O)c1C2=O)C[C@@](O)(C(=O)CO)C[C@@H]3O[C@H]1C[C@H](N)[C@@H](O)[C@H](C)O1 [Epirubicin hydrochloride] here?
A: 42.1 ± 57%

Q: Which “percent growth inhibition of drug alone” value does the source give for CN1CCC(=C2c3ccccc3Sc3ccccc32)CC1 [Pimethixene maleate] here?
A: 1.56 ± 4.3%

Q: COc1ccc(-c2cc(=S)ss2)cc1 [Anethole-trithione] was tested. Which “percent growth inhibition of drug alone” value did it give?
A: 1.97 ± 1%

Q: For Nc1ccc(S(=O)(=O)Nc2ccccn2)cc1 [Sulfapyridine], which “percent growth inhibition of drug alone” value is on record?
A: 49 ± 62%

Q: How did the “percent growth inhibition of drug alone” value turn out when COC(=O)C1=C(C)NC(C)=C(C(=O)OC2CCCN(Cc3ccccc3)C2)C1c1cccc([N+](=O)[O-])c1 (stereo not given) [Benidipine hydrochloride] was run?
A: -2.68 ± 1.2%

Q: Which “percent growth inhibition of drug alone” value does the source give for CCOC(=O)C1=C(C)NC(C)=C(C(=O)OC)C1c1cccc(Cl)c1Cl (stereo not given) [Felodipine] here?
A: 0.104 ± 0.12%
